## Small-molecule microarray binding calls

Oligonucleotides screened, 5′ to 3′:
TPP: TPP riboswitch RNA three-way junction, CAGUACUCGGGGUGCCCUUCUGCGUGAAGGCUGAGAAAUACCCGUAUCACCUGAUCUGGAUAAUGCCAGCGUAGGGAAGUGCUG. Hit rate about 0.7% of about 24,000 compounds.
PreQ1: PreQ1 riboswitch RNA pseudoknot, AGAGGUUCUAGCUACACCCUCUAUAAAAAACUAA. From B. subtilis. Hit rate about 0.7% of about 24,000 compounds.
SAM-II: SAM-II riboswitch RNA pseudoknot, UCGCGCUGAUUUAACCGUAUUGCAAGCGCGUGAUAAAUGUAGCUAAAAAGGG. Hit rate about 1% of about 21,000 compounds.

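Compounds were printed on reactive glass slides in duplicate spots, a dye-labelled oligonucleotide was laid over them, and the fluorescence left after washing was read. The data file lists only calls. An earlier report of the laboratory on the PreQ1, TPP and SAM-II riboswitches (doi:10.1038/s41467-019-09493-3) used 1 µM RNA for 2 h and required a mean Z-score above 3 (spot signal-to-noise against the whole library), a score well above that on a control array, and duplicate spots agreeing (coefficient of variation under 100); it then also set aside compounds that hit other targets, which this list keeps. The cut-offs behind this list may differ. The calls come from the array alone, and fixing a compound to the slide can hide its binding.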 Key: yes = hit, no = tested without a hit. Compounds were drawn at random from those tested, without regard to their results. A dash means that no call is listed here.

| compound | TPP | PreQ1 | SAM-II |
|---|---|---|---|
| `Cl.NCCOc1cccc(C(=O)O)c1` | no | no | no |
| `CCOc1ccccc1NC(=O)CCNC1C=CS(=O)(=O)C1` (stereo not drawn) | no | no | no |
| `CCC(O)c1nc2ccccc2n1CCCOc1ccc(C)cc1` (stereo not drawn) | no | no | - |
| `Cc1ccc(-c2cc(C(=O)N3Cc4cnn(CCO)c4C3)[nH]n2)s1` | no | no | no |
| `CCCC(NC(=O)c1cccc(N)c1)c1cccs1` (stereo not drawn) | no | no | no |
| `Nc1nc2c(s1)C(c1ccc(C(F)(F)F)cc1)CC(=O)N2` (stereo not drawn) | no | no | no |
| `Cc1cc(C)n(CC(C)NCc2noc(-c3ccco3)n2)n1` (stereo not drawn) | no | no | no |
| `Nc1c(-c2nc3ccccc3[nH]2)nnn1-c1cccc(F)c1` | no | no | no |
| `COc1ccccc1-n1cc(C2=CCN(CCOCCO)CC2)cn1` | no | no | no |
| `Cc1ccc(-c2cc(Nc3cccc(C)c3)nc(C)n2)cc1` | no | no | - |
| `CC(C)Cc1cc(-c2cn(CC3CNCCO3)nn2)n[nH]1` (stereo not drawn) | no | no | no |
| `COc1ccc(Br)cc1C1C(C#N)=C(N)Oc2cc(C)n(CC3CCCO3)c(=O)c21` (stereo not drawn) | no | no | no |
| `COc1cccc(CN2CCC(N3CCN(CCO)CC3)CC2)c1` | no | no | no |
| `Cc1nccn1-c1ccccc1CNC1Cc2ccccc2C1` | no | no | no |
| `CC(=O)OCC(=O)[C@@]12OC(C)(C)O[C@H]1C[C@H]1[C@@H]3C[C@H](F)C4=CC(=O)C=C[C@]4(C)[C@@]3(F)[C@@H](O)C[C@@]12C` | no | no | no |
| `Cc1ccc([N+](=O)[O-])cc1NC(=O)Nc1ccc(S(N)(=O)=O)cc1` | no | no | no |
| `Cc1nnc2c3ccccc3nc(NC3CCCCCC3)n12` | no | no | - |
| `C=CCN[C@H]1CS(=O)(=O)C[C@@H]1S(=O)(=O)c1ccc(F)cc1` | no | no | - |
| `COC(=O)c1sc2nc(-c3cccc(OC)c3)cc(C(F)(F)F)c2c1N` | no | no | no |
| `Cc1ccc(CN2CCN(c3cc(-c4ncon4)ccn3)CC2CCO)cc1` (stereo not drawn) | no | no | no |
| `CC(C)[C@H]1CN(CCCO)C[C@@H]1NC(=O)CCS(C)(=O)=O` | no | no | no |
| `Nc1nc2cc([N+](=O)[O-])ccc2[nH]1` | no | no | no |
| `NCC1Cc2ccccc2O1` (stereo not drawn) | no | no | no |
| `COc1cc(C=CC(=O)O)cc(S(=O)(=O)N(C)CCO)c1OC` | no | no | no |
| `Cc1nc(-c2cccc(NC(=O)c3ccccc3C3CCNC3)c2)cs1` (stereo not drawn) | no | no | no |
| `Cc1nc(N)nc(N2CCC(NC(C)c3n[nH]c(=O)[nH]3)CC2)c1Cl` (stereo not drawn) | no | no | no |
| `OCCNc1cc(-c2ccc(N3CCCCCC3)nn2)c2cc[nH]c2n1` | no | no | no |

Once more, the final 3:

compound,TPP,PreQ1,SAM-II
Cc1nc(-c2cccc(NC(=O)c3ccccc3C3CCNC3)c2)cs1 (stereo not drawn),no,no,no
Cc1nc(N)nc(N2CCC(NC(C)c3n[nH]c(=O)[nH]3)CC2)c1Cl (stereo not drawn),no,no,no
OCCNc1cc(-c2ccc(N3CCCCCC3)nn2)c2cc[nH]c2n1,no,no,no

Calls as published in the ROBIN set (doi:10.1002/anie.202211358).